Paper PMC3276557
These are yes or no findings as the source states them, for the method shown. For some of these results: In cells and extracts the contact can be indirect. Some binding calls cover weakened binding; strength is not graded here.

Chains of the proteins cited; added tags and fusions are not shown. Lines headed by an entry give the natural chain unless they say otherwise; changes in a name come on top. Residues count along the entry.
UniProt P03101: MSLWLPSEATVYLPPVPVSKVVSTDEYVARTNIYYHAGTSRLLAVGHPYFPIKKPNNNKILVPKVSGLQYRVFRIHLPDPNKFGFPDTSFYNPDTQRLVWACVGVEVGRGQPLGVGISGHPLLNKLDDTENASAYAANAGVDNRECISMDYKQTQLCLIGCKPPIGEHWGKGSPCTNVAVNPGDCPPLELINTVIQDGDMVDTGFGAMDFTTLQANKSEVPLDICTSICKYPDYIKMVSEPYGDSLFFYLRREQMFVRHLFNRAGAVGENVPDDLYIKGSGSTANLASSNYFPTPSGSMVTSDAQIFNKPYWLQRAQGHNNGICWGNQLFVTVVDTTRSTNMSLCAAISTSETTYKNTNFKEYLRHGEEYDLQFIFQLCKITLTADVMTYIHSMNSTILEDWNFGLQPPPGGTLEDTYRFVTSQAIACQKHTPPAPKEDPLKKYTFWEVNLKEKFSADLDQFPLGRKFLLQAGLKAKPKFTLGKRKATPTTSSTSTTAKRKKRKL
UniProt Q99075, residues 63-148: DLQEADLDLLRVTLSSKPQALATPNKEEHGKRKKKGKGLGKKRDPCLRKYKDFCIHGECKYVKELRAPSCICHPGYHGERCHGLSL

Experiments:
[1] = molecular target: HPV16 pseudovirions (PsV), capsids of L1 and L2 encapsidating a luciferase reporter plasmid (human papillomavirus type 16) (UniProt P03101); assay: co-IP; HPV16 bound to HaCaT cells at 4°C for 1 h, washed, shifted to 37°C for 6 h or 24 h; IP of HPV16 from the complete medium with affinity purified polyclonal anti-HPV16 VLP antibody covalently attached to magnetic beads; non-reducing SDS-PAGE, immunoblot; only the target purified
[2] = molecular target: HPV16 pseudovirions (PsV), capsids of L1 and L2 encapsidating a luciferase reporter plasmid (human papillomavirus type 16) (UniProt P03101); assay: SEC; Sepharose 4B chromatography of concentrated (Amicon 30K) complete medium of HaCaT cells exposed to HPV16 PsV or mock, 24 h; void volume (HMW, >10^7 Da) fraction, non-reducing SDS-PAGE and immunoblot; only the target purified
[3] = molecular target: HPV16 pseudovirions (PsV), capsids of L1 and L2 encapsidating a luciferase reporter plasmid (human papillomavirus type 16) (UniProt P03101); assay: co-IP; HPV16 PsV bound to HaCaT cells (500 vge/cell, 4°C, 1 h); cells lysed in cold Triton lysis buffer (1% TX100, 50 mM Tris-HCl pH 7.5, 150 mM NaCl, 1 mM EDTA); IP of HPV16 with anti-HPV16 antibody on protein A magnetic Dynabeads, 1 h, 4°C; immunoblot; for syndecan-1 with or without DTSSP cross-linking before lysis; only the target purified
[4] = molecular target: HPV16 pseudovirions (PsV), capsids of L1 and L2 encapsidating a luciferase reporter plasmid (human papillomavirus type 16) (UniProt P03101); assay: co-IP; co-culture transwell: anti-HPV16 L1 mouse mAb on Dynabeads-Protein A in the lower chamber captures HPV16 released from PsV-exposed HaCaT donor cells, 2 or 20 h, complete medium; non-reducing SDS-PAGE, immunoblot with rabbit antiserum to syndecan-1; only the target purified

heparin binding epidermal growth factor (HB-EGF) (from UniProt Q99075 63-148) (ligand)
binding [1]: binds
binding [2]: binds

B1: syndecan-1 on HaCaT human keratinocytes (receptor, UniProt P18827 23-310)
chain: QIVATNLPPEDQDGSGDDSDNFSGSGAGALQDITLSQQTPSTWKDTQLLTAIPTSPEPTGLEATAASTSTLPAGEGPKEGEAVVLPEVEPGLTAREQEATPRPRETTQLPTTHLASTTTATTAQEPATSHPHRDMQPGHHETSTPAGPSQADLHTPHTEDGGPSATERAAEDGASSQLPAAEGSGEQDFTFETSGENTAVVAVEPDRRNQSPVDQGATGASQGLLDRKEVLGGVIAGGLVGLIFAVCLVGFMLYRMKKKDEGSYSLEEPKQANGGAYQKPTKQEEFYA
modifications: heparan sulfate chains (HSPG)
binding [3]: binds

B2: amphiregulin (AREG) (ligand, UniProt P15514 101-187)
chain: SVRVEQVVKPPQNKTESENTSDKPKRKKKGGKNGKNRRNRKKKNPCNAEFQNFCIHGECKYIEHLEAVTCKCQQEYFGERCGEKSMK
binding [2]: binds

B3: syndecan-1 ectodomain released into complete medium (CM) of HaCaT cells (domain or fragment, UniProt P18827 23-254)
chain: QIVATNLPPEDQDGSGDDSDNFSGSGAGALQDITLSQQTPSTWKDTQLLTAIPTSPEPTGLEATAASTSTLPAGEGPKEGEAVVLPEVEPGLTAREQEATPRPRETTQLPTTHLASTTTATTAQEPATSHPHRDMQPGHHETSTPAGPSQADLHTPHTEDGGPSATERAAEDGASSQLPAAEGSGEQDFTFETSGENTAVVAVEPDRRNQSPVDQGATGASQGLLDRKEVLG
modifications: heparan sulfate chains (HSPG)
binding [1]: binds
binding [4]: binds
binding [2]: binds
